Data as given in PubChem BioAssay AID1508597 (Cure First, 2020).
Shown is an unselected part of the about 2,100 reagents, in one setting of the screen. 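Calls flag viability under 80% in either arm, not effects specific to rucaparib; the reference for percent is not stated.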 Some reagents were tested in more than one well and are listed for each. Not given: the 100% reference.

Purpose: 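Genes whose silencing sensitises or protects ovarian cancer cells against rucaparib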 (primary screen)
Cells: human ovarian carcinoma lines grown from tumours: OCI-P5x (papillary serous) and OCI-C5x (clear cell)
Reagent: siRNA pool against human genes, 1.25 pmol siRNA per well
Duration: 72 h or 96 h, depending on the cell culture
Treatment: rucaparib 20 µM (about IC30) or vehicle, present until read-out
Rucaparib or vehicle: Rucaparib
Cell line: OCI-C5x (clear cell)
Measured: 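Luminescent ATP-based viability assay read 72 or 96 h after transfection, depending on culture, given as normalised percent viability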
Scale: viability, normalised: higher = more viable cells remaining
Active means: 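Active when normalised viability falls below 80 percent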
Meaning of the calls: active = viability under 80%; inactive = viability 80% or more

| gene symbol | technical replicate | viability, normalised (%) | Call |
| --- | --- | --- | --- |
| DSCC1 | 1 | 78.1 | active |
| DSCC1 | 2 | 62.2 | active |
| DSCC1 | 3 | 60.8 | active |
| YY1 (YY1 transcription factor) | 1 | 67.7 | active |
| YY1 (YY1 transcription factor) | 1 | 50.1 | active |
| YY1 (YY1 transcription factor) | 2 | 58.2 | active |
| YY1 (YY1 transcription factor) | 2 | 52.8 | active |
| YY1 (YY1 transcription factor) | 3 | 39.9 | active |
| YY1 (YY1 transcription factor) | 3 | 54.4 | active |

3 entries from above, arranged by “viability, normalised (%)”, ascending.
| gene symbol | technical replicate | viability, normalised (%) | Call |
| --- | --- | --- | --- |
| DSCC1 | 3 | 60.8 | active |
| DSCC1 | 2 | 62.2 | active |
| YY1 (YY1 transcription factor) | 1 | 67.7 | active |

The results go on:
| gene symbol | technical replicate | viability, normalised (%) | Call |
| --- | --- | --- | --- |
| GUCY2F (guanylate cyclase 2F, retinal) | 1 | 75.9 | active |
| GUCY2F (guanylate cyclase 2F, retinal) | 2 | 77.9 | active |
| GUCY2F (guanylate cyclase 2F, retinal) | 3 | 80.7 | inactive |
| PARP9 (poly(ADP-ribose) polymerase family member 9) | 1 | 39 | active |
| PARP9 (poly(ADP-ribose) polymerase family member 9) | 2 | 41.2 | active |
| PARP9 (poly(ADP-ribose) polymerase family member 9) | 3 | 39 | active |
| CBX4 (chromobox 4) | 1 | 59.2 | active |
| CBX4 (chromobox 4) | 2 | 43.9 | active |
| CBX4 (chromobox 4) | 3 | 49.7 | active |
| MTF2 (metal response element binding transcription factor 2) | 1 | 39.7 | active |
| MTF2 (metal response element binding transcription factor 2) | 2 | 53.6 | active |
| MTF2 (metal response element binding transcription factor 2) | 3 | 57.2 | active |
| LRRK1 (leucine rich repeat kinase 1) | 1 | 55.7 | active |
| LRRK1 (leucine rich repeat kinase 1) | 2 | 45.6 | active |
| LRRK1 (leucine rich repeat kinase 1) | 3 | 41.2 | active |
